Measured values published in article PMC5427286.
No constants are given. Whether binding was seen depends on the method and setting.

Chains of the proteins cited; added tags and fusions are not shown. Residues count along the entry.
UniProt P31170, residues 44-227: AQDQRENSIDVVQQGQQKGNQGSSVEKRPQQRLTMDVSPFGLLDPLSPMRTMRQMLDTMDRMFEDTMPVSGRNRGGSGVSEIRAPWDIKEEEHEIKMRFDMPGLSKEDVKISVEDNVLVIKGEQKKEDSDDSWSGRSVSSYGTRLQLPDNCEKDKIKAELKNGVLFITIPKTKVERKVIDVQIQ

Biological target: Hsp21, the 21-kDa chloroplast-localized small heat-shock protein of Arabidopsis thaliana (A. thaliana) (UniProt P31170)
Assay: SEC; HiLoad/Superdex 200 HR 16/60; pooled Hsp21 incubated with 4 M urea for 20 min on ice before loading; a step of the purification; both purified

binding: no binding (condition: with 4 M urea)
Substance: Hsp21, the 21-kDa chloroplast-localized small heat-shock protein of Arabidopsis thaliana (from UniProt P31170 44-227)
